The results in this text go back to patent US4104397A, “Spiro (1,3-dioxolane-4,3') quinuclidine compounds” (The Purdue Frederick Company, priority 1975, dated 1978).

A short description of this data set: LD50 in mice, Table 3. The following applies: mouse, in vivo, sc.

Broadly, the LD50 is the dose at which mortality reaches 50%. High values mean lower toxicity, low ones greater toxicity. On to `CN1[C@@H]2CC[C@H]1CC(OC(=O)C(CO)c1ccccc1)C2` (stereo partly shown) [Atropine Sulphate, reference compound], for which the LD50 is more than 100 mg/kg.
